Results from publication PMC4736043.
No constants are given. Whether binding was seen depends on the method and setting. In cells and extracts the contact can be indirect. Some binding calls cover weakened binding; strength is not graded here. Sequences can lack the tags named with a protein.

Chains of the proteins cited; added tags and fusions are not shown. Residues count along the entry.
UniProt Q6ZWR6, residues 8740-8799: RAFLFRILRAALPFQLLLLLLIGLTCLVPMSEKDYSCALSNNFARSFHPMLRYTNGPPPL

T1: Myc-tagged Sun4 (amino acids 135-444) (mouse) (UniProt Q9JJF2)
T1 sequence: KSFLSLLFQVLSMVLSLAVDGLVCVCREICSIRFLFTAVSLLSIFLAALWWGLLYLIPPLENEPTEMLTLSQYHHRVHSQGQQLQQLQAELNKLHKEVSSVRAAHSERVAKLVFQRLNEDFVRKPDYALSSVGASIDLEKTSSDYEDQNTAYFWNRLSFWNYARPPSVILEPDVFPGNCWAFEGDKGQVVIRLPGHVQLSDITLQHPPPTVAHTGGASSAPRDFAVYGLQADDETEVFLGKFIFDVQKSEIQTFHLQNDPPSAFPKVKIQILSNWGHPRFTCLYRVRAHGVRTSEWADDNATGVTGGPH

T2: Myc-tagged Sun3 (UniProt Q5SS91)
T2 sequence: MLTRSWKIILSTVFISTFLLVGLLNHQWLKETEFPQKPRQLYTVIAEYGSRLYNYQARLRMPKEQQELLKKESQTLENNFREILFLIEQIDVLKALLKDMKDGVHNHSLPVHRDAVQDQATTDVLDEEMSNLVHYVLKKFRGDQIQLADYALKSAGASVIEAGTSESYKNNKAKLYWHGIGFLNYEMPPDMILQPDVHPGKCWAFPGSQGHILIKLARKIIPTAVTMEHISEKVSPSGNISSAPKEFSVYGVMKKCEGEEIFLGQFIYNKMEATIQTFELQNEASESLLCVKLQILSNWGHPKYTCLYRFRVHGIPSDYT

B1: EGFP-tagged Sun4 (amino acids 135-444) (domain or fragment, UniProt Q9JJF2-1 135-443)
chain: T1 sequence

What was measured:
[1] = molecular target: T1, Myc-tagged Sun4 (amino acids 135-444) (mouse); assay: co-IP; Myc- and EGFP-fusion constructs co-expressed in COS-7 cells; cells lysed in RIPA buffer; Myc-tagged proteins immunoprecipitated with anti-myc antibodies; co-precipitating EGFP-fusion proteins detected with anti-EGFP antibodies; unspecific rabbit IgG as control
Myc-tagged Sun3 = molecular target: T2, Myc-tagged Sun3; assay: as above

Molecule	binding [1]	binding (Myc-tagged Sun3)
EGFP-tagged KASH domain of Nesprin1 (from UniProt Q6ZWR6 8740-8799) (domain or fragment)	binds	–
B1	binds	binds
